Values quoted from earlier work as cited in patent US20190390161A1, “CULTURE MEDIUM COMPRISING OLIGOPEPTIDES” (Evonik Degussa GmbH, priority 2017, published 2019).
Peptide text beside a SMILES is read from it.

Test system: trypsin
Conditions: Chemical & Pharmaceutical Bulletin 22, 2680 (1974); cited from earlier work

Compound	cleavage (hydrolysis) by trypsin
CC(=O)O.CC(C)C[C@H](NC(=O)[C@@H](N)CCCCN)C(=O)O [Lys-Leu, L-Lysyl-L-leucine acetat] (H-Lys-Leu-OH)	none of these peptides were cleaved
Lys-Lys [reference compound]	none of these peptides were cleaved
